According to publication PMC6107238, “Conformational plasticity of the intrinsically disordered protein ASR1 modulates its function as a drought stress-responsive gene” (PLoS ONE, 2018):

Target: T1, ASR1 (Abscisic, Stress, Ripening 1) (Solanum lycopersicum (tomato)) (UniProt Q08655)
T1 sequence (looked up, limits assumed): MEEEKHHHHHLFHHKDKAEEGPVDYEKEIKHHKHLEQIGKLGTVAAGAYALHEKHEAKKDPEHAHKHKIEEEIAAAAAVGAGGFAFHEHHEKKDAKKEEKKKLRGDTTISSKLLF
Experiment: fluorescence anisotropy
Settings: no Zn2+; Buffer H: 100 mM NaCl, 20 mM HEPES pH 7.4, with 100 uM ZnCl2; 250 nM FITC-dsDNA; anisotropy temperature not stated (CD at 25 C); recombinant protein; label: 5' FITC on one strand

“TATTGGGCTTGG (double strand) [FITC-oligoC]”: no binding.

Construct, isoform or probe ends are uncertain for at least one entry. A negative result means that nothing was seen under these conditions. Where a protein sequence is shown, tags need not be part of it.
